# Assay results reported in PubChem BioAssay AID504444 (National Center for Advancing Translational Sciences (NCATS), 2011).
# Values joined by “and” are separate entries in the source; they are usually repeats but may differ in a detail not shown here. Equal entries are not always repeated. About 7,500 (2.1%) of roughly 360,000 compounds were called active. The shares of active, inactive and inconclusive entries below differ from those in the screen. Calls follow the shape of the dose curve; as a rule, active = well fitted inhibition curve with a large enough effect; inconclusive = small, poorly fitted or top-dose-only effect, or effect the other way; inactive = flat fitted curve, though single readings scatter. Where the call is inconclusive, the potency comes from a doubtful curve fit.
# Assay: Nrf2 qHTS screen for inhibitors; also: nearly all actives have a fitted effect of over 60% in size
# Conditions: A549 ARE-Fluc reporter, luciferase luminescence, 18-24 h; series mostly up to 46 µM
# Summary of the method: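 Nrf2 function is reported as luminescence of an ARE-controlled luciferase in A549 cells. Compounds were tested at several concentrations, and a CellTiter-Fluor read on the same wells flagged cytotoxicity.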
# Potency is read from the fitted curve at half-maximal effect.
row,SMILES,Potency
1,COc1ccc(-c2ccoc2)cc1C1C2C=CCC(C)C2C(=O)N1Cc1ccccc1 (stereo unspecified),"inconclusive: 25.9 µM [falling, single point]"
2,CCc1ccc(CN(C)C(=O)CCc2nc3ccccc3n(-c3ccc(OC)cc3)c2=O)cc1,"inconclusive: 18.4 µM [falling, single point]"
3,Cc1cc(C)nc(N/N=C/C2=C(O)CC(c3ccc(F)cc3)CC2=O)n1 (stereo unspecified),"inconclusive: 11.6 µM [falling, partial curve, poor fit]"
4,CC(=O)c1sc(NC(=O)CS(=O)(=O)c2ccccc2)nc1C,"inconclusive: 25.9 µM [activator, single point]"
5,COc1ccccc1CNC(=O)c1ccc(-c2nc(CS(=O)c3ccc(C)cc3)c(C)o2)cc1 (stereo unspecified),"inconclusive: 29.1 µM [falling, single point]"
6,CCN1CCN(Cc2ccc(NC(=O)c3ccc(C)c(NC(=O)C(=O)c4c[nH]c5ccccc45)c3)cc2C(F)(F)F)CC1,"inconclusive: 23.1 µM [falling, single point] and inconclusive: 29.1 µM [falling, single point]"
7,CCN(c1ccccc1)S(=O)(=O)c1ccc(OC)c(NC(=O)CCc2nc3ccccc3c(=O)[nH]2)c1,"inconclusive: 20.6 µM [falling, single point]"
8,Cn1c(C(=O)NCC2CCCO2)cc2oc3ccccc3c21 (stereo unspecified),"inconclusive: 6.51 µM [activator, single point]"
9,O=c1c2ccccc2nnn1COc1cccc(Cl)c1,"inconclusive: 0.92 µM [activator, full curve, poor fit]"
10,CN1c2ccccc2N(C)C1(C)c1cccc2ccccc12,"inconclusive: 16.4 µM [falling, partial curve, poor fit]"
11,COc1ccc(S(=O)(=O)N(CC(=O)N2CCN(c3ccccc3OC)CC2)c2ccccc2)cc1,inactive
12,Cc1cc(C(=O)COc2ccc(Cl)cc2Br)c(C)n1C,"inconclusive: 29.1 µM [falling, single point]"
13,CCOC(=O)c1oc2ccccc2c1CSc1nnc(-c2ccco2)o1,"inconclusive: 32.6 µM [falling, single point]"
14,O=C1c2cccc3c([N+](=O)[O-])ccc(c23)C(=O)N1c1ccccn1,"inconclusive: 14.6 µM [falling, partial curve]"
15,Cc1ccc(CNC(=O)c2ccccc2NC(=O)C2=CSCCO2)cc1,"inconclusive: 10.3 µM [falling, partial curve, poor fit]"
16,Cn1c(NCc2cccs2)nc2ccccc21,"inconclusive: 35.5 µM [activator, partial curve, poor fit]"
17,Cc1ccc(NC(=O)CSc2nnc(COc3ccc(Cl)cc3)o2)cc1,inactive
18,CCCc1oc2ccc(NS(=O)(=O)c3ccc(OCC)cc3)cc2c1C(=O)OCC,"inconclusive: 18.4 µM [falling, single point]"
19,COc1ccc(Cc2nnc(NC(=O)c3ccccc3F)s2)cc1,inactive
20,COc1cc(C(CCN2CCCC2)c2c(OC)cc(OC)c3c2OC(=O)CC3c2ccc(N(C)C)cc2)cc(OC)c1OC (stereo unspecified),inactive
21,Cc1ccc(C(=O)OC2=C(C(=O)c3ccccc3)N(C)S(=O)(=O)c3ccccc32)cc1,"inconclusive: 11.6 µM [falling, partial curve]"
22,CCOc1ccc(N2C(N)=NC(N)=NC2(C)C)cc1,"inconclusive: 20.6 µM [falling, single point]"

row,SMILES,Potency
1,COc1ccccc1C(c1nnnn1CS(=O)(=O)c1ccc(C)cc1)N1CCSCC1 (stereo unspecified),"inconclusive: 14.6 µM [falling, single point]"
2,CCOC(=O)c1c(-c2ccccc2)csc1NC(=S)N(CC)CC,inactive
3,Cc1ccc(-c2oc3ncnc(N)c3c2-c2ccc(C)cc2)cc1,"inconclusive: 0.206 µM [falling, full curve, poor fit]"
4,Nc1ccc(C(=O)Nc2nc3ccccc3s2)cc1,"inconclusive: 0.651 µM [activator, full curve]"
5,Cc1cccc(NC(=S)NC2CC3CCCC(C2)N3CC(C)C)c1 (stereo unspecified),"inconclusive: 32.6 µM [activator, partial curve, poor fit]"
6,CCOc1ccc(CN(C)CC(=O)Nc2ccc3c(c2)CCC3)cc1OC,inactive
7,O=C1C=C(c2cc3ccccc3s2)C[C@@H](c2ccc(F)cc2)C1,"inconclusive: 1.03 µM [activator, full curve, poor fit]"
8,Cc1ccc(-c2oc3ccccc3c(=O)c2OCC(=O)O)cc1,"inconclusive: 18.4 µM [falling, partial curve, poor fit]"
9,Cc1cc(N2CCOCC2)nc(SCc2c(Cl)cccc2Cl)n1,inactive
10,CCOc1ccc(S(=O)(=O)N(CCO)CCO)cc1-c1nc2c(C(C)(C)C)nn(C)c2c(=O)[nH]1,"inconclusive: 20.6 µM [falling, single point]"
11,CCC(=O)Nc1ccc(Cl)c(NC(=O)C(C)C)c1,inactive
12,CCSc1nnc(-c2c[nH]c3ccccc23)o1,"inconclusive: 2.91 µM [activator, full curve]"
13,O=C(Cc1ccc([N+](=O)[O-])cc1)Nc1ccc2c(c1)CCC2,inactive
14,O=C1C(C=Nc2ccccc2)=C(O)c2ccccc21,inactive
15,Cc1ccc(C(=O)NN2C(=O)C3C4C=CC([C@@H]3C2=O)C42CC2)cc1 (stereo partly specified),inactive
16,COc1ccc(Br)cc1S(=O)(=O)N1CCN=C1c1ccccc1,inactive
17,Cc1cccc(-c2nc(SCCCOc3cc(C)c(Cl)c(C)c3)n3[nH]c(=O)cc3n2)c1,"inconclusive: 16.4 µM [activator, partial curve, poor fit]"
18,CCOC(=O)c1ccc(-c2ccc(/C=N/NC(=O)c3cncc(Br)c3)o2)cc1,"inconclusive: 7.31 µM [activator, partial curve]"
19,COCCCn1c(C)nc2c(c1=O)c1nc3ccccc3nc1n2CCc1ccccc1,active: 8.2 µM
20,Cc1ccc([C@@H]2CC=C(C(=O)O)[C@H](c3cccc(Cl)c3)N2S(=O)(=O)c2ccccc2C)cc1,"inconclusive: 29.1 µM [falling, single point]"
21,CN(c1ccccc1)S(=O)(=O)c1cccc(NC(=O)CCNC(=O)c2ccc([N+](=O)[O-])cc2)c1,"inconclusive: 8.2 µM [falling, partial curve]"
22,O=C(CCN1C(=O)C2C3C=CC(C3)C2C1=O)N1CCN(c2ccc(F)cc2)CC1 (stereo unspecified),"inconclusive: 0.103 µM [activator, full curve, poor fit]"

row,SMILES,Potency
1,O=c1oc2c3c4c(cc2s1)CCCN4CCC3,"inconclusive: 6.51 µM [falling, partial curve, poor fit]"
2,Cc1ccc(Cl)cc1NC(=S)N(CCCN1CCN(C)CC1)Cc1cccs1,"inconclusive: 6.51 µM [falling, full curve, poor fit]"
3,CC(Sc1nc2ccccc2[nH]1)C(=O)NC1CCCCC1C (stereo unspecified),"inconclusive: 32.6 µM [falling, single point]"
4,CCc1ccc(-c2nc3c(c(SCc4ccccc4)n2)Cc2c(CO)cnc(C)c2O3)cc1,"inconclusive: 29.1 µM [activator, single point]"
5,O=c1c2ccccc2c(C=Nc2ccc(O)cc2)c(O)n1-c1nccs1,"inconclusive: 10.3 µM [falling, partial curve, poor fit]"
6,CCCN1CNc2c(c(=O)[nH]c(=S)n2CCC(C)(C)C)C1,"inconclusive: 23.1 µM [falling, partial curve, poor fit]"
7,CN(C)c1cc2c3ccccc3n(C)c2cc1N,inactive
8,COc1ccc(Cl)cc1NC(=O)c1ccc(CN2C(=O)CCn3nc(C)cc32)cc1,inactive
9,COc1ccc(CC(=O)N2CCN(c3ccccn3)CC2)cc1,inactive
10,COc1ccc(-c2nnc(SCC(=O)Nc3ncc(C)s3)n2-c2ccccc2)cc1OC,inactive
11,COCC1CCCCN1C(=O)c1cc(COc2ccc3ncccc3c2)on1 (stereo unspecified),"inconclusive: 1.64 µM [falling, partial curve]"
12,Cc1ccc2c(c1)C(c1ccccc1)N(C(=O)c1ccccc1)CC(=O)N2 (stereo unspecified),inactive
13,Cc1nc2cc(-c3ccc(Cl)cc3)nn2c(C)c1CCC(=O)N1CCN(c2ccccc2)CC1,"inconclusive: 0.366 µM [falling, full curve, poor fit]"
14,COc1cc(NS(=O)(=O)c2ccc(C(=O)O)cc2)c2nc(C)ccc2c1,"inconclusive: 0.0046 µM [falling, full curve, poor fit]"
15,Cc1cc(C(=O)CSc2nc(N)cc(=O)[nH]2)c(C)n1Cc1ccco1,"inconclusive: 32.6 µM [falling, single point]"
16,O=C(CN1C(=O)COc2ccc(S(=O)(=O)N3CCOCC3)cc21)NCc1ccc(Cl)cc1,"inconclusive: 10.3 µM [activator, partial curve, poor fit]"
17,CCN(C(=O)CSc1nnc(-c2cc3occc3n2C)n1-c1ccccc1C)c1ccccc1,"inconclusive: 13 µM [activator, partial curve, poor fit]"
18,CS(=O)(=O)c1ncc(Cl)c(C(=O)N2CCN(c3cccc(Cl)c3)CC2)n1,active: 7.31 µM
19,COc1ccccc1-n1cc(-c2ccccc2)c2c(=S)nc[nH]c21,inactive
20,O=C(Nc1nc(-c2ccccc2)cs1)C1CCCN(S(=O)(=O)c2ccccc2)C1 (stereo unspecified),active: 20.6 µM
21,COc1ccc(-c2cc(C(F)(F)F)n3ncc(C(=O)N(C)Cc4ccccc4)c3n2)cc1,"inconclusive: 18.4 µM [falling, single point]"
22,CCOC(=O)CSc1nc2sc3c(c2c(=O)n1-c1ccccc1)CCN(C)C3,"inconclusive: 18.4 µM [activator, single point]"

# Some of the entries so far, tab-delimited.
row	SMILES	Potency
1	O=c1oc2c3c4c(cc2s1)CCCN4CCC3	inconclusive: 6.51 µM [falling, partial curve, poor fit]
2	Cc1ccc(Cl)cc1NC(=S)N(CCCN1CCN(C)CC1)Cc1cccs1	inconclusive: 6.51 µM [falling, full curve, poor fit]
3	CC(Sc1nc2ccccc2[nH]1)C(=O)NC1CCCCC1C (stereo unspecified)	inconclusive: 32.6 µM [falling, single point]
4	CCc1ccc(-c2nc3c(c(SCc4ccccc4)n2)Cc2c(CO)cnc(C)c2O3)cc1	inconclusive: 29.1 µM [activator, single point]
5	O=c1c2ccccc2c(C=Nc2ccc(O)cc2)c(O)n1-c1nccs1	inconclusive: 10.3 µM [falling, partial curve, poor fit]
6	CCCN1CNc2c(c(=O)[nH]c(=S)n2CCC(C)(C)C)C1	inconclusive: 23.1 µM [falling, partial curve, poor fit]
7	CN(C)c1cc2c3ccccc3n(C)c2cc1N	inactive
8	COc1ccc(Cl)cc1NC(=O)c1ccc(CN2C(=O)CCn3nc(C)cc32)cc1	inactive
9	COc1ccc(CC(=O)N2CCN(c3ccccn3)CC2)cc1	inactive
10	COc1ccc(-c2nnc(SCC(=O)Nc3ncc(C)s3)n2-c2ccccc2)cc1OC	inactive
11	COCC1CCCCN1C(=O)c1cc(COc2ccc3ncccc3c2)on1 (stereo unspecified)	inconclusive: 1.64 µM [falling, partial curve]
12	Cc1ccc2c(c1)C(c1ccccc1)N(C(=O)c1ccccc1)CC(=O)N2 (stereo unspecified)	inactive
13	Cc1nc2cc(-c3ccc(Cl)cc3)nn2c(C)c1CCC(=O)N1CCN(c2ccccc2)CC1	inconclusive: 0.366 µM [falling, full curve, poor fit]
14	COc1cc(NS(=O)(=O)c2ccc(C(=O)O)cc2)c2nc(C)ccc2c1	inconclusive: 0.0046 µM [falling, full curve, poor fit]
15	Cc1cc(C(=O)CSc2nc(N)cc(=O)[nH]2)c(C)n1Cc1ccco1	inconclusive: 32.6 µM [falling, single point]
16	O=C(CN1C(=O)COc2ccc(S(=O)(=O)N3CCOCC3)cc21)NCc1ccc(Cl)cc1	inconclusive: 10.3 µM [activator, partial curve, poor fit]
17	CCN(C(=O)CSc1nnc(-c2cc3occc3n2C)n1-c1ccccc1C)c1ccccc1	inconclusive: 13 µM [activator, partial curve, poor fit]
18	CS(=O)(=O)c1ncc(Cl)c(C(=O)N2CCN(c3cccc(Cl)c3)CC2)n1	active: 7.31 µM
